# Laboratory results reported in publication doi:10.1101/748194.
# These are yes or no findings as the source states them, for the method shown. Some binding calls cover weakened binding; strength is not graded here.
# B1: Cdk9 (enzyme, UniProt Q96WV9 1-591)
# chain: MKRSSSVSVEDEKSARRKLDVVPKLHFVGCSHLTDYHLMEKLGEGTFGEVYKSQRRKDGKVYALKRILMHTEKEGFPITAIREIKILKSIKHENIIPLSDMTVVRADKKHRRRGSIYMVTPYMDHDLSGLLENPSVKFTEPQIKCYMKQLFAGTKYLHDQLILHRDLKAANLLIDNHGILKIADFGLARVITEESYANKNPGLPPPNRREYTGCVVTRWYRSPELLLGERRYTTAIDMWSVGCIMAEMYKGRPILQGSSDLDQLDKIFRLCGSPTQATMPNWEKLPGCEGVRSFPSHPRTLETAFFTFGKEMTSLCGAILTLNPDERLSASMALEHEYFTTPPYPANPSELQSYSASHEYDKRRKREQRDANSHAFEQTANGKRQFRFMTRGPSDPWYGIRRPNYNSQPQYQRGSYNREGGNMDRSRNVNYQPKRQQNFKPLTSDLPQKNSEFSETNAMNQTSNHSHADGQRYYRPEQDRSQRLRNPSDYGRQGRQSSQSQQPAWNVSSRYQNNSKVQTTSRASENADTNKTQHNIKYIDSYVPEYSIARQSANQKTNEQHPSSTSLHQQSTSDLKSPSFHENSNVDDTPK
# Molecular target: T1, Pch1 (S. pombe) (UniProt O74627)
# T1 sequence: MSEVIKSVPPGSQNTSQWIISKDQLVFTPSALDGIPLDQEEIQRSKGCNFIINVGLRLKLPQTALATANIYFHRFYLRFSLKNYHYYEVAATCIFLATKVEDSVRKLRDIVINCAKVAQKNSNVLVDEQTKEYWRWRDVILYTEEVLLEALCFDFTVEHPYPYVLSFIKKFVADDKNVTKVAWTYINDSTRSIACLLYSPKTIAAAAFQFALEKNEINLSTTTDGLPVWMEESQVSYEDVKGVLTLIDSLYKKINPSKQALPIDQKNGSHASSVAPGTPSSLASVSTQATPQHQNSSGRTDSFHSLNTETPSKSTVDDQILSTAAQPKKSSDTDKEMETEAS
# Experiment: co-purification
binder,measurement,value
B1,binding,binds
